Not every detail of the peptide structures is certain; ends, links or a residue may be inferred. Square brackets hold non-standard residues; d marks the D form. Peptide text beside a SMILES is read from it. * marks the point of attachment. dOrn = NCCC[C@@H](N)C(=O)O; Valol = CC(C)[C@@H](CO)N*; Octanoyl = CCCCCCCC(=O)*
System: Staphylococcal aureus
Assay: MIC determination assay / antibiotic activity of synthetic BT variants
Format: cell-based
Settings: FIG. 6B
Method: MIC determination assays. Staphylococcal aureus was grown to mid-log phase in LB at 37° C., and diluted by 500-fold with fresh LB and dispensed into 96-well micro-titer plates. Different concentrations of peptides were added, and the micro-titer plates were incubated at 37° C. with shaking. A minimal inhibition concentration (MIC) was determined as the lowest peptide concentration that produced a clear well. All experiments were performed in triplicates, and highly consistent MICs were obtained.

SMILES | antibiotic activity
CCCCCCCC(=O)N[C@H](C(=O)N[C@@H](CC(C)C)C(=O)N[C@H](CCCN)C(=O)N[C@H](C(=O)N[C@H](C(=O)N[C@H](C(=O)N[C@H](CCCCN)C(=O)N[C@H](C(=O)N[C@H](CC(C)C)C(=O)N[C@@H](CCCCN)C(=O)N[C@H](Cc1ccc(O)cc1)C(=O)N[C@@H](CC(C)C)C(=O)N[C@H](CO)C(C)C)C(C)C)C(C)C)C(C)C)[C@@H](C)CC)[C@@H](C)O [P81] (Octanoyl-TL[dOrn]IVV[dK]V[dL]K[dY]L-Valol) | full antibiotic activity
CCCCCCCC(=O)N[C@H](C(=O)N[C@@H](CC(C)C)C(=O)N[C@H](CCCN)C(=O)N[C@H](C(=O)N[C@H](C(=O)N[C@H](C(=O)N[C@H](CCCCN)C(=O)N[C@H](C(=O)N[C@H](CC(C)C)C(=O)N[C@@H](CCCCN)C(=O)N[C@H](Cc1ccc(O)cc1)C(=O)N[C@@H](CC(C)C)C(=O)N[C@H](C(N)=O)C(C)C)C(C)C)C(C)C)C(C)C)[C@@H](C)CC)[C@@H](C)O [P59] (Octanoyl-TL[dOrn]IVV[dK]V[dL]K[dY]LV-NH2) | antibiotic activity
